The other results are listed elsewhere or left out.

Assay [1] addresses Neu5Gc(a2-8)Neu5Gc(a2-6)Gal(b1-4)GlcNAc. Kind of assay: glycan array binding signal (z-score within array); higher = stronger binding. The conditions noted are these: glycan notation: IUPAC condensed, linker removed. In short, it runs like this:
(§1)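 The binding signal is a Z-score computed within each array and averaged over linkers. Arrays of the same protein sequence at different concentrations or buffers were also averaged together. Data originate from 3228 arrays in the Consortium for Functional Glycomics database, kept only where the protein sequence was available.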

For assay [2], the target named is Neu5Gc(b2-6)Gal(b1-4)GlcNAc. The assay is described as above. The conditions noted are these: glycan notation: IUPAC condensed, linker removed. In short, it runs like this:
as §1

B1: Vd7LysM (Verticillium dahliae) (protein)
chain: RRGPEPKYPPAAGTSSYCSYWVDYEGDKSCSRVLEDNVVVLKDFARWNPTVGADCSGIKAGNSYCVEAFGEPEPIEVTTTTRAATTTTQPTATTTTFANGIATPQPTQSGMVTNCNKFHWIAEGVSCSQVISFQKITLADFVKWNPSVKSDCSGMWAGVNVCVGVVGSSTDTAKPTTTAPSNGVVTPQPTQPSMVTNCNKFHWIAKGVTCQQVISYQKISLADFVKWNPSVLSDCSGMWAEVQVCVGVIGSTPTTLATTTTTAGNGVSTPLPTQPGMVTNCAKFHWVAKGVTCNQIYSFQKITLEQFVSYNPTVKSDCSGMQAEVQVCVGLIAGTTPTTTRPPTTTAPGNGVSTPQPTQPGMVTNCAKFHWVAKGVTCNQIYSFQKITLEQFVSFNPTVKSDCTGMQAEVNVCVGLIGGNPTPTQTGNGIATPTPIQPGMVSNCKKFHWIAQGVTCQQVISFQKITLADFVKWNTGVGSDCRTMWAETNVCVGV
As for B1, the “glycan array binding signal (z-score)” value in assay [1] is -1.51; in assay [2], -0.471.

(Values after the supplement of paper PMC8728848.)
